# Experimental data from the supplement of paper PMC4749390.
# Structures can show the parent of a compound that is named as a salt. The list shows a part of the results. Single values are uncertain here, since repeats match poorly.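 JEG3 cells stably express tetracycline-inducible wild-type human LRH-1, a highly sumoylated nuclear receptor. SUMO-sensitive transcripts APOC3 and MUC1, increased by SUMO-deficient LRH-1 or UBC9 knockdown, were quantified by RT-qPCR relative to TBP and DMSO controls. Primary hits had robust Z-scores above +2 or below -2, before toxicity and TBP filtering.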
# Tested on: JEG3 expressing hLRH-1
# Test: MUC1 transcript change (ddCt vs TBP and DMSO), Z-score over library; higher = higher MUC1 expression
# Details: 10 µM; time (hr): 24
row,SMILES,MUC1 transcript change (Z-score)
1,Nc1ccn([C@@H]2O[C@H](CO)[C@@H](O)[C@@H]2O)c(=O)n1 [cytarabine],1.7
2,CN(C)CCCN1c2ccccc2CCc2ccccc21 [Imipramine hydrochloride],-0.793
3,CCCCCCCC/C=C\CCCCCCCC(=O)O [ethanolamine oleate],0.675
4,CC(c1cc2ccccc2s1)N(O)C(N)=O (stereo unspecified) [zileuton],0.653
5,O=C1CCc2cc(OCCCCc3nnnn3C3CCCCC3)ccc2N1 [cilostazol],0.00909
6,CC(=O)OCC(=O)[C@@]1(O)[C@@H](C)CC2C3CCC4=CC(=O)C=C[C@]4(C)[C@@]3(F)[C@@H](O)C[C@@]21C (stereo partly specified) [betamethasone acetate],0.0447
7,CCN(CC)CCCC(C)Nc1c2ccc(Cl)cc2nc2ccc(OC)cc12 (stereo unspecified) [Quinacrine dihydrochloride],3.28
8,CCN(CCO)CCCC(C)Nc1ccnc2cc(Cl)ccc12 (stereo unspecified) [hydroxychloroquine sulfate],0.718
9,C[C@]12CCC3c4ccc(O)cc4CCC3C1C[C@@H](O)[C@@H]2O (stereo partly specified) [estriol],0.189
10,NS(=O)(=O)c1cc2c(cc1C(F)(F)F)NC(Cc1ccccc1)NS2(=O)=O (stereo unspecified) [bendrofumethiazide],1.83
11,O=c1[nH]c(=O)c2ccccc2o1 [carsalam],0.258
12,CN1C(=O)CC(c2ccccc2)C1=O (stereo unspecified) [phensuccimide],0.566
13,CCCCC/N=C(\N)N/N=C/c1c[nH]c2ccc(OC)cc12 [tegaserod maleate],-0.141
14,CC(C)(C(=O)c1cccnc1)c1cccnc1 [metyrapone],-0.456
15,NCCCC(N)CC(=O)NCC1NC(=O)C(CO)NC(=O)C(N)CNC(=O)C(C2CCN=C(N)N2)NC(=O)/C(=C\NC(N)=O)NC1=O (stereo unspecified) [capreomycin sulfate],0.0914
16,COc1ccc(C(=O)NCc2ccc(OCCN(C)C)cc2)cc1OC [itopride  hydrochloride],0.189
17,CC(CCc1ccccc1)NCC(O)c1ccc(O)c(C(N)=O)c1 (stereo unspecified) [labetalol hydrochloride],0.927
18,CC(=O)Nc1nnc(S(N)(=O)=O)s1 [Acetazolamide],-0.517
19,C/C=C/c1ccc(OC)cc1 [anethole],0.292
20,CO/N=C1\C[C@]2(C[C@@H]3C[C@@H](C/C=C(\C)C[C@@H](C)/C=C/C=C4\CO[C@@H]5[C@H](O)C(C)=C[C@@H](C(=O)O3)[C@]45O)O2)O[C@H](/C(C)=C/C(C)C)[C@H]1C [moxidectin],-0.0382
21,CCOC(=O)NNc1nncc2ccccc12 [todralazine hydrochloride],-0.054
22,CCCC(=O)Nc1ccc(OCC(O)CNC(C)C)c(C(C)=O)c1 (stereo unspecified) [acebutolol hydrochloride],-1.2
23,CC(C)(C)NCC(O)c1cc(O)cc(O)c1 (stereo unspecified) [terbutaline hemisulfate],0.575
24,CC(=O)[C@H]1CCC2C3CCC4=CC(=O)CC[C@]4(C)C3CC[C@@]21C (stereo partly specified) [progesterone],0.0655
25,CC[N+](CC)(CC)CCOc1cccc(OCC[N+](CC)(CC)CC)c1OCC[N+](CC)(CC)CC [Gallamine triethiodide],-0.197
26,CC(Oc1c(Cl)cccc1Cl)C1=NCCN1 (stereo unspecified) [lofexidine  hydrochloride],-0.191

# Ordered by number of heavy atoms (low to high): some entries from above.
row,SMILES,MUC1 transcript change (Z-score)
18,CC(=O)Nc1nnc(S(N)(=O)=O)s1 [Acetazolamide],-0.517
5,O=C1CCc2cc(OCCCCc3nnnn3C3CCCCC3)ccc2N1 [cilostazol],0.00909
7,CCN(CC)CCCC(C)Nc1c2ccc(Cl)cc2nc2ccc(OC)cc12 (stereo unspecified) [Quinacrine dihydrochloride],3.28

# Following part

row,SMILES,MUC1 transcript change (Z-score)
1,C#CCN(C)CCCOc1ccc(Cl)cc1Cl [Clorgyline hydrochloride],-0.65
2,OCc1ccccn1 [piconol],0.587
3,CN1CCC(=C2c3ccccc3C=Cc3ccccc32)CC1 [Cyproheptadine hydrochloride],-0.0453
4,CCOC(=O)OC(C)OC1=C(C(=O)Nc2ccccn2)N(C)S(=O)(=O)c2ccccc21 (stereo unspecified) [ampiroxicam],0.00181
5,COc1ccc(C(=O)c2ccccc2O)c(O)c1 [dioxybenzone],-0.873
6,CC[C@H]1OC(=O)[C@H](C)[C@@H](O[C@H]2C[C@@](C)(OC)[C@@H](O)[C@H](C)O2)[C@H](C)[C@@H](O[C@@H]2O[C@H](C)C[C@H](N(C)C)[C@H]2O)[C@](C)(OC)C[C@@H](C)C(=O)[C@H](C)[C@@H](O)[C@]1(C)O [clarithromycin],0.673
7,C=NC(C(=O)NC1C(=O)N2C1SC(C)(C)C2C(=O)O)c1ccccc1 (stereo unspecified) [metampicillin sodium],-0.555
8,COc1cc(CNC(=O)CCCC/C=C/C(C)C)ccc1O [e-capsaicin],-0.523
9,COCCc1ccc(OCC(O)CNC(C)C)cc1 (stereo unspecified) [metoprolol tartrate],0.0235
10,CC1CCCC(C)N1 (stereo unspecified) [nanofin],0.387
11,CC(=O)Nc1cccc(O)c1 [metacetamol],0.595
12,CC(=O)OCC(CCn1cnc2cnc(N)nc21)COC(C)=O [famciclovir],0.223
13,O=C(O)c1cc(N=Nc2ccc(O)c(C(=O)O)c2)ccc1O [olsalazine sodium],0.775
14,CCCCCOC(=O)Nc1nc(=O)n([C@@H]2O[C@H](C)[C@@H](O)[C@H]2O)cc1F [capecitabine],-0.321
15,CC12CCC3c4ccc(O)cc4CCC3C1C[C@H](O)[C@@H]2O (stereo partly specified) [epiestriol],0.446
16,O=C1[C@H](CC[C@H](O)c2ccc(F)cc2)[C@@H](c2ccc(O)cc2)N1c1ccc(F)cc1 [ezetimibe],0.768
17,O=C1/C(=C/c2cccs2)CCC/C1=C\c1cccs1 [tenylidone],-0.39
18,C/C=C\C1=C(C(=O)O)N2C(=O)C(NC(=O)C(N)c3ccc(O)cc3)C2SC1 (stereo unspecified) [cefprozil],-0.607
19,CC(O)(P(=O)(O)O)P(=O)(O)O [etidronate disodium],0.256
20,Clc1ccc2c(c1)CCc1cccnc1C2=C1CCNCC1 [desloratidine],0.426
21,Cc1cn([C@H]2C[C@H](N=[N+]=[N-])[C@@H](CO)O2)c(=O)[nH]c1=O [zidovudine [azt]],-1.62
22,O=C(O)/C=C/C(=O)O [fumaric acid],0.709
23,CO[C@@]1(NC(=O)CSCC#N)C(=O)N2C(C(=O)O)=C(CSc3nnnn3C)CSC21 (stereo partly specified) [cefmetazole sodium],0.722
24,C#CCN(C)Cc1ccccc1 [Pargyline hydrochloride],0.729
25,CCOC(=O)c1ncn2c1CN(C)C(=O)c1cc(F)ccc1-2 [flumazenil],0.516
